In publication doi:10.1101/2021.09.01.458560 one finds binding data, which are given here for one substance.

Sequences of proteins named here, by UniProt entry; tags and fusion partners are left off. A change or cut given only in a name is not applied to a line headed by its entry.
UniProt F7J0N2: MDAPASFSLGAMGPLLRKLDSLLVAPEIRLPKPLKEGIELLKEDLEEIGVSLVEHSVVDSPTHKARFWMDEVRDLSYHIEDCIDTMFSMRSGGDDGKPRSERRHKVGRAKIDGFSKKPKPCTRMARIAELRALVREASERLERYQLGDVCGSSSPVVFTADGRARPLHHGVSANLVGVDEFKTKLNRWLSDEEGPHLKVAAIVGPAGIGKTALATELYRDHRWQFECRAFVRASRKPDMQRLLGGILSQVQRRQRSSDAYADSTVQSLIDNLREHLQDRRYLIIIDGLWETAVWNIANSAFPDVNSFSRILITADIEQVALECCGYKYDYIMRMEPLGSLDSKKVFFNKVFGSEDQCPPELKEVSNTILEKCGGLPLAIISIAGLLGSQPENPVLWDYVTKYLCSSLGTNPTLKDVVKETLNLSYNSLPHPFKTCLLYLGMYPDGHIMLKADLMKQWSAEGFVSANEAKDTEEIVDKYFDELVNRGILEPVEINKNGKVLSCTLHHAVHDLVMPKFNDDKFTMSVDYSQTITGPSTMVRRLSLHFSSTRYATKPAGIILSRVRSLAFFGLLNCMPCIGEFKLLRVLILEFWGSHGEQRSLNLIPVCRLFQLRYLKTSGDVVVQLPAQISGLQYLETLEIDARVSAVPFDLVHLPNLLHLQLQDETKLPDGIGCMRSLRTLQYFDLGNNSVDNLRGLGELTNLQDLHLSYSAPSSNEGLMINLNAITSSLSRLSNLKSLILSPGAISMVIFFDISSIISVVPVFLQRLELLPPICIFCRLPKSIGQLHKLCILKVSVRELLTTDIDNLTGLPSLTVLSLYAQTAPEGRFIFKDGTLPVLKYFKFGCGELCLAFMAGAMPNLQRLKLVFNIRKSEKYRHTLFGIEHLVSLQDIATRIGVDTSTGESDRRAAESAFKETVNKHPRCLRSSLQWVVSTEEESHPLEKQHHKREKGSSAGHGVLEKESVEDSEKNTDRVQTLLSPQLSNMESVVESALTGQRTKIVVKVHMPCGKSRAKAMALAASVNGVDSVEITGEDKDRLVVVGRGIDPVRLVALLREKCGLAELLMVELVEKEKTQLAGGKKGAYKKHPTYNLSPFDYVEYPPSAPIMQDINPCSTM
UniProt F7J0M4: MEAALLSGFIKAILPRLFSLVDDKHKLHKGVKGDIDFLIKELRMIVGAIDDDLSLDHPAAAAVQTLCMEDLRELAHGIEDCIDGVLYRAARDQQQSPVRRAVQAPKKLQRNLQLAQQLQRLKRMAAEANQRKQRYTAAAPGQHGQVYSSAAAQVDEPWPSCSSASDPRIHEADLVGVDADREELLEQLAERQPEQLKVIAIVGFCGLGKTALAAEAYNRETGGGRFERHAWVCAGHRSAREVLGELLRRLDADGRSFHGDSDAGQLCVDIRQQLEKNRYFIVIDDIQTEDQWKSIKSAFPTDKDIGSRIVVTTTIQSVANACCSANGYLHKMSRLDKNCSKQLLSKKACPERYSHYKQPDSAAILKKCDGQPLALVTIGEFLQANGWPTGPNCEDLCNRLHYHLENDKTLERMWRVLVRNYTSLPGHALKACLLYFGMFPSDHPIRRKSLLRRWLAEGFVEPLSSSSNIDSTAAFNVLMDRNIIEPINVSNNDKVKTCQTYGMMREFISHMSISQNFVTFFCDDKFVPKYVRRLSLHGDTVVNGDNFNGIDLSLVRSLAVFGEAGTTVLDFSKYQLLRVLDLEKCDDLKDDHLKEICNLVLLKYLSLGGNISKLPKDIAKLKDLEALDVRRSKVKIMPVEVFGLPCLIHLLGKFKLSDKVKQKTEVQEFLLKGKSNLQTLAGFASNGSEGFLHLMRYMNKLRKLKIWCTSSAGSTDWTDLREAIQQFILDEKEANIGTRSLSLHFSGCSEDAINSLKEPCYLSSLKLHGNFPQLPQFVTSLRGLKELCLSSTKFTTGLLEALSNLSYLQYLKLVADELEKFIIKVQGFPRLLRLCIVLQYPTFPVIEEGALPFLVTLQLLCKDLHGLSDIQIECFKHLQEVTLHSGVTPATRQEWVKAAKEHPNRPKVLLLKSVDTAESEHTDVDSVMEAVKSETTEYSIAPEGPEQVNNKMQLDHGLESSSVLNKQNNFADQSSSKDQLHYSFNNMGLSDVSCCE

These are yes or no findings as the source states them, for the method shown. In cells and extracts the contact can be indirect. Binding calls can cover weak binding; strength is not graded here.

The target in this test is FLAG:RGA5 (Oryza sativa subsp. japonica, Sasanishiki) (UniProt F7J0N2). Description: co-IP.

For the substance “RGA4 (MHD mutant):HA (from UniProt F7J0M4) (receptor)”, the binding result is “binds”.
